{"source": "PubChem BioAssay AID248", "about": "(DTP/NCI, 2004)", "tested_on": "L1210 leukemia ip in BDF1 mice, survival T/C", "assay": "NCI In Vivo Anticancer Drug Screen. Data for tumor model L1210 Leukemia (intraperitoneal) in B6D2F1 (BDF1) mice", "details": "T/C endpoint: mean survival time, higher T/C = longer survival", "key": {"[1]": {"details": "dose: 400.0 mg/kg/injection, schedule: Q01DX001 (ip), vehicle: saline"}, "[2]": {"details": "dose: 400.0 mg/kg/injection, schedule: Q01DX001 (ip), vehicle: Klucel (hydroxypropylcellulose) (HPC)"}, "[3]": {"details": "dose: 100.0 mg/kg/injection, schedule: Q01DX009 (ip), vehicle: saline with Tween-80"}, "[4]": {"details": "dose: 300.0 mg/kg/injection, schedule: Q01DX001 (ip), vehicle: saline"}, "[5]": {"details": "dose: 400.0 mg/kg/injection, schedule: Q04DX003 (ip), vehicle: Klucel (hydroxypropylcellulose) (HPC)"}, "[6]": {"details": "dose: 400.0 mg/kg/injection, schedule: Q01DX009 (ip), vehicle: gum acacia"}}, "note": "The list shows only some results of the screen, not a fair sample: it is rich in T/C values a quarter to a half above the control, in often repeated tests (any T/C) and in doses without a T/C. Further doses and runs are listed elsewhere. T/C gives the treated animals as a percentage of the vehicle group. Some entries give survivors of the animals treated and no T/C: the source files T/C as zero there, which appears to mark a toxic dose or a test without result, not a measured value. Some doses without a T/C left all or most animals alive at the check, yet need not have been tolerated: survival well below the control is almost never listed, so the zero probably covers shortened survival too. Counts of survivors are from the toxicity check (mostly the fifth day) where no day follows; animals may have died later. Schedule codes are those of the source, taken here to give the interval after Q, in days (D) or hours (H), and the number of doses after X. Some doses were run more than once; their values stand side by side, smallest first. For survival time, the PubChem record calls one and a half times the control and up active, and a quarter to a half above the control has no call in these data; cut-offs in other NCI protocols can differ. Some T/C values carry the count of animals alive at the toxicity check (mostly the fifth day); where none is given, no animal had died by that day.", "data": [{"compound": "O=C(/C=C(\\C(=O)c1ccccc1)c1ccccc1)c1ccccc1", "values": [{"measurement": "survivor count", "setting": "dose: 100.0 mg/kg/injection, schedule: Q01DX001 (ip), vehicle: saline with Tween-80", "result": "2 of 6"}, {"measurement": "survivor count", "setting": "dose: 400.0 mg/kg/injection, schedule: Q01DX001 (ip), vehicle: saline with Tween-80", "result": "6 of 6"}, {"measurement": "survivor count", "setting": "[1]", "result": "6 of 6"}]}, {"compound": "CNc1ncnc2c1cnn2C", "values": [{"measurement": "survivor count", "setting": "dose: 160.0 mg/kg/injection, schedule: Q01DX015 (ip), vehicle: carboxymethylcellulose (CMC)", "result": "2 of 6"}, {"measurement": "survivor count", "setting": "dose: 320.0 mg/kg/injection, schedule: Q01DX015 (ip), vehicle: carboxymethylcellulose (CMC)", "result": "0 of 6"}]}, {"compound": "COC1OC(CO)C(O)C1n1cnc2c(SC)ncnc21", "note": "(stereo unspecified)", "values": [{"measurement": "survivor count", "setting": "dose: 400.0 mg/kg/injection, schedule: Q04DX002 (ip), vehicle: saline", "result": "0 of 3"}]}, {"compound": "CCNC(=O)CCl", "values": [{"measurement": "survivor count", "setting": "[1]", "result": "0 of 4"}]}, {"compound": "BrC1(Br)C2CCCCC21", "note": "(stereo unspecified)", "values": [{"measurement": "survivor count", "setting": "dose: 100.0 mg/kg/injection, schedule: Q04DX003 (ip), vehicle: acetone", "result": "6 of 6"}, {"measurement": "survivor count", "setting": "dose: 400.0 mg/kg/injection, schedule: Q04DX003 (ip), vehicle: acetone", "result": "2 of 6 and 3 of 6"}]}, {"compound": "Cc1c2c(nn1Cc1ccccc1)C(=O)C=C(Nc1ccccc1)C2=O", "values": [{"measurement": "T/C", "setting": "[2]", "result": "128 % of control"}, {"measurement": "survivor count", "setting": "[2]", "result": "0 of 6"}]}, {"compound": "Cc1ccc(S(=O)(=O)Nc2ccccc2C(=O)c2ccc(C)c(C)c2)cc1", "values": [{"measurement": "survivor count", "setting": "dose: 200.0 mg/kg/injection, schedule: Q01DX001 (ip), vehicle: carboxymethylcellulose (CMC)", "result": "2 of 4"}, {"measurement": "survivor count", "setting": "dose: 400.0 mg/kg/injection, schedule: Q01DX001 (ip), vehicle: carboxymethylcellulose (CMC)", "result": "0 of 4"}]}, {"compound": "COc1ccc(OC)c(NC(=O)Nc2cc([N+](=O)[O-])ccc2C)c1", "values": [{"measurement": "survivor count", "setting": "dose: 100.0 mg/kg/injection, schedule: Q04DX002 (ip), vehicle: Klucel (hydroxypropylcellulose) (HPC)", "result": "4 of 4"}]}, {"compound": "CC1(C)C2CC=C(CCO)C1C2", "note": "(stereo unspecified)", "values": [{"measurement": "survivor count", "setting": "[1]", "result": "2 of 4"}]}, {"compound": "Nc1nc(SCC(=O)c2ccccc2)c2[nH]cnc2n1", "values": [{"measurement": "T/C", "setting": "[3]", "result": "141 % of control"}, {"measurement": "T/C", "setting": "dose: 400.0 mg/kg/injection, schedule: Q01DX009 (ip), vehicle: saline with Tween-80", "result": "127 % of control [5 of 6 alive]"}]}, {"compound": "O=C1C=CC(=O)N1c1ccc(Br)c(Cl)c1", "values": [{"measurement": "survivor count", "setting": "dose: 100.0 mg/kg/injection, schedule: Q04DX002 (ip), vehicle: other", "result": "1 of 3"}, {"measurement": "survivor count", "setting": "dose: 200.0 mg/kg/injection, schedule: Q04DX002 (ip), vehicle: other", "result": "0 of 3"}, {"measurement": "survivor count", "setting": "dose: 400.0 mg/kg/injection, schedule: Q04DX002 (ip), vehicle: other", "result": "0 of 3"}]}, {"compound": "CC1(C)CC(=O)CC(C)(C)N1", "values": [{"measurement": "survivor count", "setting": "dose: 400.0 mg/kg/injection, schedule: Q04DX003 (ip), vehicle: saline", "result": "4 of 6"}]}, {"compound": "CCC(CCl)NC1CCCCC1", "note": "(stereo unspecified)", "values": [{"measurement": "survivor count", "setting": "[4]", "result": "1 of 6"}]}, {"compound": "CN(C)C(=N)[Se]", "values": [{"measurement": "survivor count", "setting": "dose: 25.0 mg/kg/injection, schedule: Q01DX009 (ip), vehicle: saline", "result": "2 of 6"}, {"measurement": "survivor count", "setting": "dose: 100.0 mg/kg/injection, schedule: Q01DX009 (ip), vehicle: saline", "result": "0 of 6"}, {"measurement": "survivor count", "setting": "dose: 200.0 mg/kg/injection, schedule: Q01DX009 (ip), vehicle: saline", "result": "0 of 6"}, {"measurement": "survivor count", "setting": "dose: 400.0 mg/kg/injection, schedule: Q01DX009 (ip), vehicle: saline", "result": "0 of 6"}]}, {"compound": "CC(=O)Oc1ccc(C)cc1", "values": [{"measurement": "survivor count", "setting": "[5]", "result": "5 of 6"}]}, {"compound": "O=[N+]([O-])c1ccc(C=C2C=c3ccccc3=C2)cc1", "values": [{"measurement": "survivor count", "setting": "dose: 100.0 mg/kg/injection, schedule: Q04DX003 (ip), vehicle: Klucel (hydroxypropylcellulose) (HPC)", "result": "6 of 6"}, {"measurement": "survivor count", "setting": "dose: 200.0 mg/kg/injection, schedule: Q04DX003 (ip), vehicle: Klucel (hydroxypropylcellulose) (HPC)", "result": "6 of 6"}, {"measurement": "survivor count", "setting": "[5]", "result": "6 of 6"}]}, {"compound": "CN(C)c1ccc(N=NC#N)cc1", "values": [{"measurement": "survivor count", "setting": "dose: 12.5 mg/kg/injection, schedule: Q01DX009 (ip), vehicle: saline with Tween-80", "result": "0 of 3"}, {"measurement": "survivor count", "setting": "dose: 25.0 mg/kg/injection, schedule: Q01DX009 (ip), vehicle: saline with Tween-80", "result": "0 of 3"}, {"measurement": "survivor count", "setting": "dose: 50.0 mg/kg/injection, schedule: Q01DX009 (ip), vehicle: saline with Tween-80", "result": "3 of 3"}, {"measurement": "survivor count", "setting": "[3]", "result": "0 of 3"}, {"measurement": "survivor count", "setting": "dose: 200.0 mg/kg/injection, schedule: Q01DX009 (ip), vehicle: saline with Tween-80", "result": "0 of 3"}]}, {"compound": "CC1CC(=O)N(Cl)C(=O)N1Cl", "note": "(stereo unspecified)", "values": [{"measurement": "survivor count", "setting": "[4]", "result": "3 of 6"}]}, {"compound": "CC(CCC(=O)O)(c1cc(Cl)c(O)c(Cl)c1)c1cc(Cl)c(O)c(Cl)c1", "values": [{"measurement": "survivor count", "setting": "[6]", "result": "3 of 6"}]}, {"compound": "Nc1ccc2c(c1)sc1ccccc12", "values": [{"measurement": "survivor count", "setting": "dose: 400.0 mg/kg/injection, schedule: Q04DX003 (ip), vehicle: saline with Tween-80", "result": "1 of 6"}]}, {"compound": "O=C(NN1CCOCC1)c1ccc([N+](=O)[O-])s1", "values": [{"measurement": "survivor count", "setting": "dose: 400.0 mg/kg/injection, schedule: Q01DX005 (ip), vehicle: saline", "result": "1 of 4"}]}, {"compound": "CN(NC(=O)CC(=O)NN(C)C(=S)c1ccccc1)C(=S)c1ccccc1", "values": [{"measurement": "survivor count", "setting": "dose: 200.0 mg/kg/injection, schedule: Q01DX009 (ip), vehicle: gum acacia", "result": "6 of 6"}, {"measurement": "survivor count", "setting": "[6]", "result": "0 of 6"}]}]}
